One molecule from article PMC4176176, “The CRISPR-associated Cas4 protein Pcal_0546 from Pyrobaculum calidifontis contains a [2Fe-2S] cluster: crystal structure and nuclease activity” (Nucleic Acids Research, 2014) can be followed below.

No constants are given. Whether binding was seen depends on the method and setting.

This experiment has as its target Cas4 protein Pcal_0546 from Pyrobaculum calidifontis (Pyrobaculum calidifontis) (UniProt A3MTK6). Put plainly: SEC; size-exclusion chromatography of the purified protein on a Superdex S200 10/300 GL column; both purified. A general note: Size exclusion chromatography separates by hydrodynamic size, large species first.

B1: Cas4 protein Pcal_0546 from Pyrobaculum calidifontis (enzyme, UniProt A3MTK6 1-213)
chain: MELLSPKPLCSVVNCEDLEKLDHVSALNELRREQEIFKLLPGIYAHRYDFRRVSPSIINDFEYCPRLLWVQHKLGLKLLSEKSVVSIIRGRILHERYERLLSQYENVVAEYKVEIGDLVGVVDLVIKRGGEYIPVEIKTGFSKEAHKTQLQIYISMLKARFGYLVYRNHVEVVHRNDAALDVLKKIREILSAREAPPAKCNSCIFKPICKNLL
As for B1, the binding entry is “no binding”.
